In the test the target is T1, Myc-tagged BCRP, Q9UNQ0.
T1 chain: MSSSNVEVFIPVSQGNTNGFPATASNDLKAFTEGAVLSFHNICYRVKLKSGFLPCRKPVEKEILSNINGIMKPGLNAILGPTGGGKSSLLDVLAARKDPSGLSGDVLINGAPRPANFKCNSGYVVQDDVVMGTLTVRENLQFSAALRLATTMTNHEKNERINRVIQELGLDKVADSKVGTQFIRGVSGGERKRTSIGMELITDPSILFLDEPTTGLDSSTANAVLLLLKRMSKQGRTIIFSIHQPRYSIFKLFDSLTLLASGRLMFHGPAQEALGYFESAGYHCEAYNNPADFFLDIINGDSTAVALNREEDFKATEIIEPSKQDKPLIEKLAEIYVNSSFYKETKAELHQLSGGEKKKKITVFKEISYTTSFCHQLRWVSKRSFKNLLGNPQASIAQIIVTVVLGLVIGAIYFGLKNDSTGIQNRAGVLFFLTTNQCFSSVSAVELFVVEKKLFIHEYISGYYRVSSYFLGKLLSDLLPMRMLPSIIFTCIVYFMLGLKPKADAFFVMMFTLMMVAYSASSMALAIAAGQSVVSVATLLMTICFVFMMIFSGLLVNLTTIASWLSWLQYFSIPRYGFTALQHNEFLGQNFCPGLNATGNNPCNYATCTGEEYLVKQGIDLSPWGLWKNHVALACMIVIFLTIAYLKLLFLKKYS
Kind of test: co-IP in transfected 293T cells (IP anti-HA, blot anti-Myc; legend of FIG. 18). Particulars: remark: other sources report otherwise.

These are yes or no findings as the source states them, for the method shown. Binding seen in cells or lysates may run through a third protein. Some results given as binding are weak or reduced against the parent protein; the word gives no strength. Sequences can lack the tags named with a protein.

B1: HA-tagged BCRP (breast cancer resistance protein), Q9UNQ0 1-655 (protein, UniProt Q9UNQ0 1-655, looked up, not shown: small tags and cut ends)
chain: T1 chain
In the case of B1, the binding result was “binds”.

For the origin of these results see patent US20100048671A1, “INHIBITION OF THE 44 KILODALTON ISOFORM OF PIM-1 KINASE RESTORES APOPTOSIS INDUCED BY CHEMOTHERAPEUTIC DRUGS IN CANCER CELLS” (priority 2005, published 2010).
